Experimental data as given in the supplement of paper PMC7877785.
± gives the uncertainty stated by the source. Many of these values have a large error.

Assay: self-splicing fitness, log relative to wild type (ln ratio); higher = more splicing; Tetrahymena group I intron in knt gene, E. coli kanamycin selection, DiMSum; sequences stand for … in CUCUCU…GGAGGGAAAAGUUAUCAGGCAUGCACCUGGUAGCUAGUCUUUAAACCAAUAGAUUGCAUCGGUUUAAAAGGCAAGACCGUCAAAUUGCGGGAAAGGGGUCAACAGCCGUUCAGUACCAAGUCUCAGGGGAAACUUUGAGAUGGCCUUGCAAAGGGUAUGGUAAUAAGCUGACGGACAUGGUCCUAACCACGCAGCCAAGUCCUAAGUCAACAGAUCUUCUGUUGAUAUGGAUGCAGUUCACAGACUAAAUGUCGGUCGGGGAAGAUGUAUUCUUCUCAUAAGAUAUAGUCGGACCUCUCCUUAAUGGGAGCUAGCGGAUGAAGUGAUGCAACACUGGAGCCGCUGGGAACUAAUUUGUAUGCGAAAGUAUAUUGAUUAGUUUUGGAGUACUCGUGGUCG
In short: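 A randomised library covering all eight P1ex-region intron nucleotides was built with the intron in the knt kanamycin-resistance gene on pET-22b(+) and held in E. coli BL21(DE3). Cells were grown overnight at 37°C or 30°C on LB agar, with or without 25 μg/mL kanamycin, plus 100 μg/mL carbenicillin, 50 μM IPTG and 0.2% rhamnose, and pooled colonies were amplicon-sequenced on an Illumina HiSeq 2500. DiMSum fitness is the error-weighted combination of wild-type-normalised replicate fold changes, kanamycin versus none.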

Row | Sequence | self-splicing fitness (ln) (30 °C) | self-splicing fitness (ln) (37 °C)
1 | GGGAAGCAAUAUUACGGGAU | -1.34 ± 0.73 | –
2 | AGGGAGCAAUAUUACGGCAC | -3.85 ± 0.61 | –
3 | AAGGAGCAAUAUUACGAAUG | – | -3.08 ± 0.53
4 | GUCGAGCAAUAUUACGGGGG | – | -1.85 ± 0.61
5 | CGAGAGCAAUAUUACGACAC | – | -1.98 ± 1.1
6 | AGCGAGCAAUAUUACGCCUC | – | -3.37 ± 0.75
7 | AGUGAGCAAUAUUACGACCG | -2.53 ± 0.66 | –
8 | CACGAGCAAUAUUACGGACC | – | -3.08 ± 1.1
9 | GAAGAGCAAUAUUACGUCAC | -4.88 ± 1 | –
10 | CGUGAGCAAUAUUACGCUCC | -1.32 ± 1.4 | –
11 | ACAUAGCAAUAUUACGAACA | 0.105 ± 0.14 | -1.05 ± 0.17
12 | UUGUAGCAAUAUUACGAGGG | -4.36 ± 0.59 | –
13 | UGGUAGCAAUAUUACGGGCC | – | -2.94 ± 0.75
14 | UUUGAGCAAUAUUACGGGGU | -3.42 ± 0.54 | –
15 | UGCGAGCAAUAUUACGAGCU | -1.32 ± 1.4 | -1.29 ± 0.63
16 | AACGAGCAAUAUUACGGAGU | -5.7 ± 0.71 | –
17 | UGGGAGCAAUAUUACGGUUG | – | -3.23 ± 0.53
18 | UCAUAGCAAUAUUACGCACU | -3.19 ± 0.25 | -3.18 ± 0.32
19 | UUGGAGCAAUAUUACGUCGU | – | -1.99 ± 0.5
20 | CGGCAGCAAUAUUACGUAAC | – | -1.78 ± 0.67
21 | GGUCAGCAAUAUUACGCCCG | -3.28 ± 0.6 | -0.687 ± 0.65
22 | GUUGAGCAAUAUUACGAUGA | -3.58 ± 0.62 | –
23 | CGUGAGCAAUAUUACGCCUU | -3.66 ± 1 | –
24 | GGUCAGCAAUAUUACGCGGG | -3.26 ± 0.61 | –

Row | Sequence | self-splicing fitness (ln) (30 °C) | self-splicing fitness (ln) (37 °C)
25 | UUCGAGCAAUAUUACGCACG | -1.61 ± 0.55 | -2.16 ± 1.1
26 | UGCUAGCAAUAUUACGACGC | -1.52 ± 1.2 | -3.4 ± 1
27 | CGUAAGCAAUAUUACGUAUU | -4.21 ± 0.52 | –
28 | UCGGAGCAAUAUUACGCCGA | – | -4.47 ± 0.72
29 | ACGUAGCAAUAUUACGCUUC | -3.97 ± 1 | -2.78 ± 0.53
30 | ACUUAGCAAUAUUACGAGAC | – | -2.59 ± 0.54
31 | AGCGAGCAAUAUUACGCUCC | – | -1.29 ± 1.2
32 | GGUAAGCAAUAUUACGGCCA | – | -1.67 ± 0.68
33 | UAUAAGCAAUAUUACGAAAA | -1.72 ± 0.31 | -1.27 ± 0.31
34 | CUAGAGCAAUAUUACGAUCC | – | -0.404 ± 0.51
35 | AGAUAGCAAUAUUACGUAAA | -2.53 ± 0.17 | -1.74 ± 0.14
36 | AACCAGCAAUAUUACGAAGA | -2.02 ± 0.081 | -0.639 ± 0.082
37 | UUGCAGCAAUAUUACGUCAC | -2.71 ± 0.55 | –
38 | ACUUAGCAAUAUUACGGUAC | -3.36 ± 0.21 | -3.57 ± 0.42
39 | GUAAAGCAAUAUUACGAUUC | 0.475 ± 0.08 | 0.115 ± 0.091
40 | CAGAAGCAAUAUUACGCUCC | – | 0.0166 ± 0.64
41 | GGUUAGCAAUAUUACGAGGU | -2.84 ± 0.6 | –
42 | CGGUAGCAAUAUUACGAAUC | -3.09 ± 0.76 | -0.226 ± 0.52
43 | AGAUAGCAAUAUUACGAGCG | -0.464 ± 0.12 | -1.08 ± 0.15
44 | ACAGAGCAAUAUUACGCCUU | -3.76 ± 0.42 | -1.9 ± 0.3
45 | CCCUAGCAAUAUUACGCACG | -3.98 ± 0.37 | -1.74 ± 0.18
46 | AGAGAGCAAUAUUACGUGUC | -4.79 ± 0.51 | –
47 | GUUGAGCAAUAUUACGCCAG | 0.781 ± 1.1 | -2.03 ± 1.1
48 | UAGAAGCAAUAUUACGCGGC | -0.828 ± 0.58 | -1.88 ± 1.2

Nos. 39 through 44 from above:
Row | Sequence | self-splicing fitness (ln) (30 °C) | self-splicing fitness (ln) (37 °C)
39 | GUAAAGCAAUAUUACGAUUC | 0.475 ± 0.08 | 0.115 ± 0.091
40 | CAGAAGCAAUAUUACGCUCC | – | 0.0166 ± 0.64
41 | GGUUAGCAAUAUUACGAGGU | -2.84 ± 0.6 | –
42 | CGGUAGCAAUAUUACGAAUC | -3.09 ± 0.76 | -0.226 ± 0.52
43 | AGAUAGCAAUAUUACGAGCG | -0.464 ± 0.12 | -1.08 ± 0.15
44 | ACAGAGCAAUAUUACGCCUU | -3.76 ± 0.42 | -1.9 ± 0.3

Later entries

Row | Sequence | self-splicing fitness (ln) (30 °C) | self-splicing fitness (ln) (37 °C)
49 | AGGAAGCAAUAUUACGUUGA | -3.28 ± 0.54 | –
50 | UCGGAGCAAUAUUACGUAGU | -3.9 ± 1 | –
51 | UAACAGCAAUAUUACGCAAG | -2.08 ± 0.078 | -2.23 ± 0.074
52 | GUUGAGCAAUAUUACGAGGA | – | -2.05 ± 0.57
53 | GAUUAGCAAUAUUACGCCAU | -3.23 ± 0.54 | –
54 | CAUUAGCAAUAUUACGGAUU | -3.12 ± 0.2 | -1.23 ± 0.21
55 | GAUGAGCAAUAUUACGUAAC | -1.63 ± 0.12 | -1.9 ± 0.3
56 | GGGUAGCAAUAUUACGUUCC | -3 ± 0.55 | –
57 | CGUAAGCAAUAUUACGAGGA | -3.34 ± 1.1 | –
58 | CUUUAGCAAUAUUACGAGUU | -3.5 ± 0.52 | –
59 | AGCAAGCAAUAUUACGGGGA | -2.7 ± 0.14 | -2.1 ± 0.14
60 | CCGUAGCAAUAUUACGUCCC | – | -0.693 ± 1.4
61 | CCGGAGCAAUAUUACGUCUA | -3.56 ± 0.53 | –
62 | UCUUAGCAAUAUUACGCACC | -2.09 ± 1.4 | –
63 | CGGGAGCAAUAUUACGCGAG | -2.61 ± 0.54 | –
64 | CUUAAGCAAUAUUACGAACA | -3.62 ± 0.6 | -2.63 ± 1
65 | CCUAAGCAAUAUUACGGUAC | -2.81 ± 0.22 | -2.17 ± 0.34
66 | GUGGAGCAAUAUUACGAAGA | -3.59 ± 0.6 | –
67 | UCAUAGCAAUAUUACGCCAC | -3.54 ± 0.61 | -3.86 ± 1
68 | CUCAAGCAAUAUUACGAGGG | -4.86 ± 0.51 | –
69 | AGAGAGCAAUAUUACGGGAG | – | -2.9 ± 1.1
70 | CAAUAGCAAUAUUACGCCCU | -2.02 ± 1.2 | -1.62 ± 0.6
71 | AUCGAGCAAUAUUACGGUGG | -3.5 ± 0.53 | –
72 | GAUGAGCAAUAUUACGAGAG | -4.94 ± 0.51 | –

Row | Sequence | self-splicing fitness (ln) (30 °C) | self-splicing fitness (ln) (37 °C)
73 | UUUUAGCAAUAUUACGAGGU | – | -3.26 ± 0.74
74 | CAUCAGCAAUAUUACGCAAC | -3.89 ± 0.51 | –
75 | UUCAAGCAAUAUUACGGGCC | -4.73 ± 0.59 | –
76 | GGUGAGCAAUAUUACGAAAG | -2.56 ± 0.64 | -2.95 ± 0.78
77 | CGGGAGCAAUAUUACGUACC | -3.7 ± 0.78 | -1.37 ± 0.62
78 | CGGGAGCAAUAUUACGUAUG | – | -2.14 ± 0.63
79 | CCACAGCAAUAUUACGAUGC | -3.7 ± 0.17 | -2.66 ± 0.21
80 | AGGUAGCAAUAUUACGAUGA | -0.948 ± 0.016 | -0.562 ± 0.034
81 | UAAGAGCAAUAUUACGAGUC | – | -3.47 ± 0.52
82 | ACAUAGCAAUAUUACGCAUA | -3.01 ± 0.17 | -1.85 ± 0.12
83 | AGGGAGCAAUAUUACGAACG | -2.58 ± 0.39 | -1.9 ± 0.36
84 | GGAAAGCAAUAUUACGCUUU | -4.89 ± 0.59 | –
85 | AAUGAGCAAUAUUACGUCAG | -1.81 ± 0.45 | -2.32 ± 0.42
86 | GGGGAGCAAUAUUACGCACG | -1.89 ± 0.17 | -1.44 ± 0.24
87 | UUAGAGCAAUAUUACGUGUC | -3.51 ± 0.52 | -3.05 ± 0.74
88 | AAUAAGCAAUAUUACGUGAG | -0.815 ± 0.065 | -0.198 ± 0.093
89 | UGUCAGCAAUAUUACGCUCG | -0.552 ± 0.16 | 0.987 ± 0.32
90 | CCGAAGCAAUAUUACGGUUA | -3.9 ± 0.72 | –
91 | GAGAAGCAAUAUUACGCCGC | -1.96 ± 1.2 | –
92 | GUUAAGCAAUAUUACGUUGC | -2.53 ± 0.77 | -2.65 ± 0.54
93 | GCUUAGCAAUAUUACGUUCU | -1.03 ± 0.095 | 0.0827 ± 0.1
94 | GGAGAGCAAUAUUACGACAG | -3.17 ± 1 | -0.44 ± 0.82
95 | CGUGAGCAAUAUUACGUGAA | -4.98 ± 0.71 | –
